Measured values as given in publication PMC4140647.

Sequences of proteins named here, by UniProt entry; tags and fusion partners are left off.
UniProt Q7XZF5: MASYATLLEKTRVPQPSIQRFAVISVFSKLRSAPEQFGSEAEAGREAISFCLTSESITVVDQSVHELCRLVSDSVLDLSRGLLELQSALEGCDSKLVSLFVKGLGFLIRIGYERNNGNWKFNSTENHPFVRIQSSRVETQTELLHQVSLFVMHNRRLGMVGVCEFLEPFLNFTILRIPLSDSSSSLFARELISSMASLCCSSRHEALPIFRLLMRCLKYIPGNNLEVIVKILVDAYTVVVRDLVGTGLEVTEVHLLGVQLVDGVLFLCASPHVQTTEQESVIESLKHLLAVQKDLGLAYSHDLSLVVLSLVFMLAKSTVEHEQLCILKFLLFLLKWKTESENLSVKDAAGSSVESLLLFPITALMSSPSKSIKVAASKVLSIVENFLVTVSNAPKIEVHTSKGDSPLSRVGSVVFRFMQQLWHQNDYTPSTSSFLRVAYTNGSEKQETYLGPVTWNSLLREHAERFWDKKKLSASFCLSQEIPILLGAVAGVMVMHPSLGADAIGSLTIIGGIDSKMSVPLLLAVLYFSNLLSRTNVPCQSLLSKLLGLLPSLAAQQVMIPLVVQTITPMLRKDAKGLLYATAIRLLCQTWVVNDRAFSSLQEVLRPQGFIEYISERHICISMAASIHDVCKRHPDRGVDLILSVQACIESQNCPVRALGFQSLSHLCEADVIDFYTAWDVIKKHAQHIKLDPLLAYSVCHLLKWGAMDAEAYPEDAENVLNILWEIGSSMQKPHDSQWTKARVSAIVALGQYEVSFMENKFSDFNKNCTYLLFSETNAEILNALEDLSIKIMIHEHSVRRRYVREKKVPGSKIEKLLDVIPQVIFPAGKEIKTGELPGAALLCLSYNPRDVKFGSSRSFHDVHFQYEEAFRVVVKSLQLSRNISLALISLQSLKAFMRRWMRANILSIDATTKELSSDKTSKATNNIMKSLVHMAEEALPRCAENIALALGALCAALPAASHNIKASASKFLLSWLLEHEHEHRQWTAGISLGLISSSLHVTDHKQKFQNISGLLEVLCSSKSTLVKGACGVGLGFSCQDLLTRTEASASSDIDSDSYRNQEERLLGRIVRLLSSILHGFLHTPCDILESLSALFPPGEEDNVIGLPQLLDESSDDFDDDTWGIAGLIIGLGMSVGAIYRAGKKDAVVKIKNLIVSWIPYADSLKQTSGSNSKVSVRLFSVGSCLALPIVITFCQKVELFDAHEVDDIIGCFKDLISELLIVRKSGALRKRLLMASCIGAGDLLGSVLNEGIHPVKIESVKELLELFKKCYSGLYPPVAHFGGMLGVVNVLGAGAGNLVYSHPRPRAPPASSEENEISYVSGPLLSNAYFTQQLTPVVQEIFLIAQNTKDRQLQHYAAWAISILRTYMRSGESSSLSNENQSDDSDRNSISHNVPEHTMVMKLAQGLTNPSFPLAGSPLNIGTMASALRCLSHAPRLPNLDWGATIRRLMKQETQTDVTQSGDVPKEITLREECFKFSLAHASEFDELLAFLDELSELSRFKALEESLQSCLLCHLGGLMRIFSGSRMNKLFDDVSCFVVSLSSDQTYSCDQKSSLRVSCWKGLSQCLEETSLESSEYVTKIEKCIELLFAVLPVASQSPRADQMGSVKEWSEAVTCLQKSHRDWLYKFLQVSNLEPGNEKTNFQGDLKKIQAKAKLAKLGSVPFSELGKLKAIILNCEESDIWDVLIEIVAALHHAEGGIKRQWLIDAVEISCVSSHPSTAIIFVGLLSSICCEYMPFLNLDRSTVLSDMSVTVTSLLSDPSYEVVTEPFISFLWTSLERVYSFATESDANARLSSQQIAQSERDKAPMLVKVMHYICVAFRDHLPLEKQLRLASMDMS

Tests used:
[1] = target: T1, GFP-tagged RRP41 (Arabidopsis thaliana) (UniProt Q9SP08); experiment: affinity purification with mass spectrometry; RRP41-myc or RRP41-GFP extracted from flowers of stable Arabidopsis transformants, held on magnetic microparticles coated with monoclonal myc or GFP antibodies (MACS, Miltenyi), SDS omitted from washing buffers; nano LC-MS/MS; three biological repeats crossed, proteins of mock IPs excluded
T1 sequence: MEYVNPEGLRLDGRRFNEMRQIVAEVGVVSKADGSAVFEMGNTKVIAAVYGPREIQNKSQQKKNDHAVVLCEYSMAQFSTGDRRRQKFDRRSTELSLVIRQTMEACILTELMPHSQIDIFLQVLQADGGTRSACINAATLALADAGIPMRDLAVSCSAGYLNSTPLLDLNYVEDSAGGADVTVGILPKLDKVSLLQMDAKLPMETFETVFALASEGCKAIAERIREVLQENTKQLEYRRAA

[2] = target: T2, myc-tagged RRP41 (Arabidopsis thaliana) (UniProt Q9SP08); experiment: as above
T2 sequence: T1 sequence

[3] = target: T3, HEN2-GFP (Arabidopsis thaliana) (UniProt Q9ZVW2); experiment: affinity purification with mass spectrometry; HEN2-GFP (hen2 background) extracted from flowers, held on anti-GFP magnetic microparticles (MACS), 150 mM NaCl; LC-MS/MS; duplicates crossed, proteins of mock IPs excluded
T3 sequence: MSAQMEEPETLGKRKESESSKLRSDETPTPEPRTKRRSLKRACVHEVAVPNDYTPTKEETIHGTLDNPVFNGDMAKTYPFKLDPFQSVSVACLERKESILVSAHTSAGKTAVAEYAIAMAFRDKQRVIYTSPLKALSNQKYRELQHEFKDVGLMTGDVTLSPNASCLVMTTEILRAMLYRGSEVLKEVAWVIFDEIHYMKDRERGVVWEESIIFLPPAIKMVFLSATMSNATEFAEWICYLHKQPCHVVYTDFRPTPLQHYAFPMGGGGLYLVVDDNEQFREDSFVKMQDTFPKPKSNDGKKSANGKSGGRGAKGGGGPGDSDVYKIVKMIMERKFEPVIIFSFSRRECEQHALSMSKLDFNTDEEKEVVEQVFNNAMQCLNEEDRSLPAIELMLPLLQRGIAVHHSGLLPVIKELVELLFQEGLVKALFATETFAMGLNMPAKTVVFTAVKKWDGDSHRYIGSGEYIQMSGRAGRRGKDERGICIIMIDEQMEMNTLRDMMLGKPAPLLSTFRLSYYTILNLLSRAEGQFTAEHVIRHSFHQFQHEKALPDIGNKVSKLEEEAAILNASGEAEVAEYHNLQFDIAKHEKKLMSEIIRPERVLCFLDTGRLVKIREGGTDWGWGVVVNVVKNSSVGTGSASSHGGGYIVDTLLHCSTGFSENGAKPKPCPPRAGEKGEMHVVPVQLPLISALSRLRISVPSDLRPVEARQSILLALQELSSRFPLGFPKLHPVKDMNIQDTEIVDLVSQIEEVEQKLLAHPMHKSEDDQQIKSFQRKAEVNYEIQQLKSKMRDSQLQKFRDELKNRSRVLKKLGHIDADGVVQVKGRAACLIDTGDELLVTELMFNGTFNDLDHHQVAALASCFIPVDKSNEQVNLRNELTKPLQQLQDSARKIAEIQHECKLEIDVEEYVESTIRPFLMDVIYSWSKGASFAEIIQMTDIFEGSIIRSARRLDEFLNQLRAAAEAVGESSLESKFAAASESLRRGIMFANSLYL

[4] = target: T4, AtMTR4-GFP (Arabidopsis thaliana) (UniProt Q9XIF2); experiment: affinity purification with mass spectrometry; AtMTR4-GFP (own promoter, mtr4 background) extracted from flowers, held on anti-GFP magnetic microparticles (MACS), SDS omitted from washing buffers; LC-MS/MS; triplicates crossed, proteins of mock IPs excluded
T4 sequence: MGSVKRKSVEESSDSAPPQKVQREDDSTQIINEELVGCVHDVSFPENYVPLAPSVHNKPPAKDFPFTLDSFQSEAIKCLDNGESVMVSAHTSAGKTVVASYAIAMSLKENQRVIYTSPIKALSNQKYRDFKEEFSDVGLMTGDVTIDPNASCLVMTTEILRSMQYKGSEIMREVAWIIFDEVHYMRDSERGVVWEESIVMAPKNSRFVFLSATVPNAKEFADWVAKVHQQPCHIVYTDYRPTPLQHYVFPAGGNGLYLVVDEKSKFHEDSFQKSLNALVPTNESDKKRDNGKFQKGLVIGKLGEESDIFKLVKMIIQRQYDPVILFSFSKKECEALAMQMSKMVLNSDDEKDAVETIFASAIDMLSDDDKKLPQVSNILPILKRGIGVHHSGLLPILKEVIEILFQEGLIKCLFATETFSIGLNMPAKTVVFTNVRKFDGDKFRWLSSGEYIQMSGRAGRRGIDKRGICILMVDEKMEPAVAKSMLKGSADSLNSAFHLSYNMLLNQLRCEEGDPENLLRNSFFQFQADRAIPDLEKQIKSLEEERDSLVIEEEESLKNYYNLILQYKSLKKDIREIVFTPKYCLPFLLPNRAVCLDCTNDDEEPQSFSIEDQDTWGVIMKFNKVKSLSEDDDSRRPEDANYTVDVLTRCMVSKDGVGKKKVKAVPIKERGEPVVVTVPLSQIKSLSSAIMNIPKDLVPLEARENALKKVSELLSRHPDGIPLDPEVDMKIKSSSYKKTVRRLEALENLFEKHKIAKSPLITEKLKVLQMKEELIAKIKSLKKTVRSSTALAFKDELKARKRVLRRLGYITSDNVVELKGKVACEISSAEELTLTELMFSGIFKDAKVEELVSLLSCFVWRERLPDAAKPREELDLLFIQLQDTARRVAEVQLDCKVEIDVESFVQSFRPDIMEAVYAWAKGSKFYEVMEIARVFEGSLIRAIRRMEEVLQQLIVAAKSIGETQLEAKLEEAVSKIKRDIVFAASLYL

[5] = target: T1, GFP-tagged RRP41 (Arabidopsis thaliana); experiment: affinity purification with mass spectrometry; RRP41-myc or RRP41-GFP extracted from flowers of stable Arabidopsis transformants, held on magnetic microparticles coated with monoclonal myc or GFP antibodies (MACS, Miltenyi), SDS omitted from washing buffers; nano LC-MS/MS; three biological repeats crossed, proteins of mock IPs excluded; remark: listed apart in the source
[6] = target: T2, myc-tagged RRP41 (Arabidopsis thaliana); experiment: as above; remark: listed apart in the source
[7] = target: T3, HEN2-GFP (Arabidopsis thaliana); experiment: affinity purification with mass spectrometry; HEN2-GFP (hen2 background) extracted from flowers, held on anti-GFP magnetic microparticles (MACS), 50 mM NaCl; LC-MS/MS; duplicates crossed, proteins of mock IPs excluded

RESURRECTION 1 (from UniProt Q7XZF5 1-1841)
binding [1]: binds | binding [2]: binds

B1: RRP45B/CER7 (protein, UniProt Q9M209 1-438)
chain: MEGRLANMWRLTVNESKFVETALQSELRVDGRGLYDYRKLTIKFGKEYGSSEVQLGQTHVMGFVTAQLVQPYKDRPNEGSLSIFTEFSPMADPSFEPGRPGESAVELGRIIDRGLRESRAVDTESLCVLAGKMVWSVRIDLHILDNGGNLVDAANIAALAALMTFRRPDCTVGGENGQEVIIHPLEEREPLPLIIHHLPIAFTFGFFNKGNIVVMDPTYVEEAVMCGRMTVTVNANGDICAIQKPGEEGVNQSVILHCLRLASSRAAATTKIIREEVEAYNCERSLQKVKRHPTLAKSEVSGPTVAVKEEHRKSSDQERAAEISREHVERLKLSTEEVRSSKEEEAANFKGGPSNWDPYSEAMDVDSLKVSLASRGDPVTKSSSTKKMNGSGNAQKVGVEISVEEVTGELGKKDTKHKDGEMTLKDAVKPKKKRKNKS
binding [3]: no binding (only 150 mM NaCl) | binding [4]: binds | binding [5]: binds | binding [6]: binds | binding [7]: binds

Like-named read-outs stand apart in the source and are kept apart here. Results are given in words; binding and its absence hold for the method and conditions named. In cells and extracts the contact can be indirect. A yes stands for co-enrichment or nearness to the bait. Other partners may have been found. For some of these results: No binding means not detected with the bait. Sequences can lack the tags named with a protein.
